From paper PMC11260493

Chains of the proteins cited; added tags and fusions are not shown. Residues count along the entry.
UniProt O15550: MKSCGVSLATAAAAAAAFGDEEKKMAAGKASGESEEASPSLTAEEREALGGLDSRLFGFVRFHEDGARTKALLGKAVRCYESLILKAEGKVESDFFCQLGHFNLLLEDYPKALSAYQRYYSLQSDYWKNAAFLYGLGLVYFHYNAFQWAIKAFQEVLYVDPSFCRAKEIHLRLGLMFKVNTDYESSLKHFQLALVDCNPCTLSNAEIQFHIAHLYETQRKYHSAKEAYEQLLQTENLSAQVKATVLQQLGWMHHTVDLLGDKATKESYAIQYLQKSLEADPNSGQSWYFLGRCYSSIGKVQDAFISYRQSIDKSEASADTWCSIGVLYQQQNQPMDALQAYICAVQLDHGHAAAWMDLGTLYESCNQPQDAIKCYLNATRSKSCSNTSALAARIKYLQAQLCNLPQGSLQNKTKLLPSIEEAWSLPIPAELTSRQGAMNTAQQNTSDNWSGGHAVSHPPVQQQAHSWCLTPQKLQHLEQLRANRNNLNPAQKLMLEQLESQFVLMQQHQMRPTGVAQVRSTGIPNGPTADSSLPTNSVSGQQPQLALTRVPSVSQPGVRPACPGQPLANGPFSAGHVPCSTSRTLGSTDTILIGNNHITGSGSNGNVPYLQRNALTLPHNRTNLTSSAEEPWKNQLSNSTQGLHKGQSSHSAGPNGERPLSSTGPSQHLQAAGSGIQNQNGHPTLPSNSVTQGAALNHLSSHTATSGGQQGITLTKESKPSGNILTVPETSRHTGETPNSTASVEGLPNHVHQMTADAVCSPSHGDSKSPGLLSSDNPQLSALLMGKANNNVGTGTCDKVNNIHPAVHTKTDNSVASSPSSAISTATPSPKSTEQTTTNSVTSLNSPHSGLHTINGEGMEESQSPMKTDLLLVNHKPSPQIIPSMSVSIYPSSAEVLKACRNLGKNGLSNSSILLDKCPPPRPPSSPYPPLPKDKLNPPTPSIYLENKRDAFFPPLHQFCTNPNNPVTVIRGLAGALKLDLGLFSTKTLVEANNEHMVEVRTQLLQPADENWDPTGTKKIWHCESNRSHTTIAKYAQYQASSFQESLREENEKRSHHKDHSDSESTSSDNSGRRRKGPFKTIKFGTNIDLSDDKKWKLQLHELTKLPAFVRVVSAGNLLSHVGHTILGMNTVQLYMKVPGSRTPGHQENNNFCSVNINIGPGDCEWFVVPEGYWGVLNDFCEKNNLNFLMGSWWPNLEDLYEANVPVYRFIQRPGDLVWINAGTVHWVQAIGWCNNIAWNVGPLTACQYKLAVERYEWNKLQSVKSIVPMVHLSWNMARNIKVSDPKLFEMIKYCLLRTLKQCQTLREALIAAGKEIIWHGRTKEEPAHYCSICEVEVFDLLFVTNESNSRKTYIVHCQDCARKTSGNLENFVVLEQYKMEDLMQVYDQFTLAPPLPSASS
UniProt P12956: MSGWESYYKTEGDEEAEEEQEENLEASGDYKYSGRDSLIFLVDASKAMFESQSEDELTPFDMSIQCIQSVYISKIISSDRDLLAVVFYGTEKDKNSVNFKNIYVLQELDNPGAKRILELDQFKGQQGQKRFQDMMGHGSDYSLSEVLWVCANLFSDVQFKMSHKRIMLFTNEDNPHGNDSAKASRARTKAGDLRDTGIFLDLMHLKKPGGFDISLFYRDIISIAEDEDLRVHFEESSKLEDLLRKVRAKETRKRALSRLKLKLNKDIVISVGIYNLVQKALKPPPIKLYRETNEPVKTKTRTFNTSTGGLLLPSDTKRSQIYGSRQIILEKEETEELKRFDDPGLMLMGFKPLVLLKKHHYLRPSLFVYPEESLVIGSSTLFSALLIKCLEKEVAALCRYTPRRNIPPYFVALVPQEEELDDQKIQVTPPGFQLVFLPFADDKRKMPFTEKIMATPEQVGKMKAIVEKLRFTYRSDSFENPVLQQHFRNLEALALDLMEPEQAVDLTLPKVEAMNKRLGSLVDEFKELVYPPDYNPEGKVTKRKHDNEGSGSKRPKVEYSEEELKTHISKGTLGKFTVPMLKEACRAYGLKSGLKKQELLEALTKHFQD
UniProt P13010: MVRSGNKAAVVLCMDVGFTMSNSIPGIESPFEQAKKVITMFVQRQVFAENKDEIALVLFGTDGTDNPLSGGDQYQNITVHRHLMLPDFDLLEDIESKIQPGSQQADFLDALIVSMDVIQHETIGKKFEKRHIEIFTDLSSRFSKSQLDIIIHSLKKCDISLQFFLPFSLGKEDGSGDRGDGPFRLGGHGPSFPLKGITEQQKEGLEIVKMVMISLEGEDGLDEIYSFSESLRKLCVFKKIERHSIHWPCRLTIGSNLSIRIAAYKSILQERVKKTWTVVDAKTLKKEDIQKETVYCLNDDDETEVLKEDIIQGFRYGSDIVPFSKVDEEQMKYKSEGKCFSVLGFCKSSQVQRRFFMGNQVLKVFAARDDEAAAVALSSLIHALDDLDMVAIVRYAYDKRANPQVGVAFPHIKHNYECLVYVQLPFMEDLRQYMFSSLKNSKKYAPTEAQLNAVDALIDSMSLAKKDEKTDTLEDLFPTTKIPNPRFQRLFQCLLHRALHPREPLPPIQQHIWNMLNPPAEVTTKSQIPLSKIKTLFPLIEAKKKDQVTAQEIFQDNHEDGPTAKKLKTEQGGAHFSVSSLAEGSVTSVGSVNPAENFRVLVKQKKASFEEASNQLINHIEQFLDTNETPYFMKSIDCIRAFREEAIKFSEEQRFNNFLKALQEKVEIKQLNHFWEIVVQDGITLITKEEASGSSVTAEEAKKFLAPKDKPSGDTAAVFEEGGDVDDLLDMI
UniProt P27694: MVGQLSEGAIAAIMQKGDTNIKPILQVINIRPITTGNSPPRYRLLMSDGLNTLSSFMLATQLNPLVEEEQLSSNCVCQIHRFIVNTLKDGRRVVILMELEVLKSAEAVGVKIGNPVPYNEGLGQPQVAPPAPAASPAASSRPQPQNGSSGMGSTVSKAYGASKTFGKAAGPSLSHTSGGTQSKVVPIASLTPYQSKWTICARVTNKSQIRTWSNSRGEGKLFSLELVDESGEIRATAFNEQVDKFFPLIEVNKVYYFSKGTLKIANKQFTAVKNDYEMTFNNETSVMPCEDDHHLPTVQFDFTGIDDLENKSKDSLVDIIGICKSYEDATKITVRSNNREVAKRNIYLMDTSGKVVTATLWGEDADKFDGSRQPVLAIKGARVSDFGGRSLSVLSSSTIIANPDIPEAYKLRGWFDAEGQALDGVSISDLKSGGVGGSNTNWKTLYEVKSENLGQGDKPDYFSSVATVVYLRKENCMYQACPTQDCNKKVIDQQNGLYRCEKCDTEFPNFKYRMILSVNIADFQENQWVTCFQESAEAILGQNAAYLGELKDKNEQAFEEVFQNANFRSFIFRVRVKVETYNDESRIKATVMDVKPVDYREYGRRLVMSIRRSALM
UniProt P15927: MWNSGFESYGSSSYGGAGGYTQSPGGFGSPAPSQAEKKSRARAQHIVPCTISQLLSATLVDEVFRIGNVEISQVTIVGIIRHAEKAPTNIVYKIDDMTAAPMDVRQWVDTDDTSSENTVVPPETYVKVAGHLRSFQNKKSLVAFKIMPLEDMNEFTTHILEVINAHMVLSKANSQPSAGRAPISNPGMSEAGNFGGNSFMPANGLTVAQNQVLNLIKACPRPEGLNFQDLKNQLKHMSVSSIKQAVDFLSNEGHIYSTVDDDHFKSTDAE
UniProt O60264: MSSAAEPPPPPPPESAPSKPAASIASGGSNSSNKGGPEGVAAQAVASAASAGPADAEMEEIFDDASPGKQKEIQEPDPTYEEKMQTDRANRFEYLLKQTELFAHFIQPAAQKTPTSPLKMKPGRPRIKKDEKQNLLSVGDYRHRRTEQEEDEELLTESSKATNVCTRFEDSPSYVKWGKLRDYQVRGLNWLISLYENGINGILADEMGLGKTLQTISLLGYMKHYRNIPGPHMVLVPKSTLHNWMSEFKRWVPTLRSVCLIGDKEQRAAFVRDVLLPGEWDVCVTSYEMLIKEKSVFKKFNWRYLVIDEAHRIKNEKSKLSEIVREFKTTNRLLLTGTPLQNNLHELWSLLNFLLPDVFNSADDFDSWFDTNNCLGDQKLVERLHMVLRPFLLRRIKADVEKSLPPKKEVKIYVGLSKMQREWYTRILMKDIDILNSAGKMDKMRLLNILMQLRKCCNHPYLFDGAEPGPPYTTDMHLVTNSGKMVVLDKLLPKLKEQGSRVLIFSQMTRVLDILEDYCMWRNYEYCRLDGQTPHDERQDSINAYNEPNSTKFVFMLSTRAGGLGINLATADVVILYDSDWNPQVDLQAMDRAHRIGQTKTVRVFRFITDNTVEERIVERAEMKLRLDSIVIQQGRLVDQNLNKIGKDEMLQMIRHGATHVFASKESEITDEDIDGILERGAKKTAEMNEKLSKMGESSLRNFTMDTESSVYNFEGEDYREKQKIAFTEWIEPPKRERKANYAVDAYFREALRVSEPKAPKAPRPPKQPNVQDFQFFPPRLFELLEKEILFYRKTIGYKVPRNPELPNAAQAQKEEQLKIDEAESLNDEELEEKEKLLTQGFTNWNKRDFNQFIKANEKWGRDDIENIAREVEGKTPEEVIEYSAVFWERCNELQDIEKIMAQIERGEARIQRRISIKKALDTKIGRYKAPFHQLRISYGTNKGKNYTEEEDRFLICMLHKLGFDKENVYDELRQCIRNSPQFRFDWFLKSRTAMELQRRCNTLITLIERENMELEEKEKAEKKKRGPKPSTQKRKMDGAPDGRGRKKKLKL
UniProt Q08945: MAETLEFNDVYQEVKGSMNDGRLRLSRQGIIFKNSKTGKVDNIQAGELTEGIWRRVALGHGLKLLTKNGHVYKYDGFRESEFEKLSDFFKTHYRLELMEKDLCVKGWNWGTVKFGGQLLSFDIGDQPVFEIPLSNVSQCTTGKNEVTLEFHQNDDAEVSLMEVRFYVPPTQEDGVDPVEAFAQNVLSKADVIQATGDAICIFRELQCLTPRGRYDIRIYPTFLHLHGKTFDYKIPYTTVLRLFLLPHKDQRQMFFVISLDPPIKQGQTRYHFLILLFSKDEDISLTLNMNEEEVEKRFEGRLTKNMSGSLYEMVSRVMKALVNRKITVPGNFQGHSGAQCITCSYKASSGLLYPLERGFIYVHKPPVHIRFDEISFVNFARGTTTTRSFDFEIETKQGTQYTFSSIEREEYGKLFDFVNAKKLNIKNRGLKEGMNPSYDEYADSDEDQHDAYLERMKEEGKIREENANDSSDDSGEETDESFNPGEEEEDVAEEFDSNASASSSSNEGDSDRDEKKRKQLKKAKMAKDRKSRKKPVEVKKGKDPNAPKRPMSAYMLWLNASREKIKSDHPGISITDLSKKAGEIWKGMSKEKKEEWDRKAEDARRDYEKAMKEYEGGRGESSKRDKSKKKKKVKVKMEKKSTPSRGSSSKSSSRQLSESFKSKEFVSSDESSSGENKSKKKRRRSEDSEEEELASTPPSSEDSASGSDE
UniProt P63165, residues 1-97: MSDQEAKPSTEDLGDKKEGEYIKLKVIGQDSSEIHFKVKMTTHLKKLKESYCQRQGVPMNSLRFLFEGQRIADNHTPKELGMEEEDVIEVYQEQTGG
UniProt Q7KZF4: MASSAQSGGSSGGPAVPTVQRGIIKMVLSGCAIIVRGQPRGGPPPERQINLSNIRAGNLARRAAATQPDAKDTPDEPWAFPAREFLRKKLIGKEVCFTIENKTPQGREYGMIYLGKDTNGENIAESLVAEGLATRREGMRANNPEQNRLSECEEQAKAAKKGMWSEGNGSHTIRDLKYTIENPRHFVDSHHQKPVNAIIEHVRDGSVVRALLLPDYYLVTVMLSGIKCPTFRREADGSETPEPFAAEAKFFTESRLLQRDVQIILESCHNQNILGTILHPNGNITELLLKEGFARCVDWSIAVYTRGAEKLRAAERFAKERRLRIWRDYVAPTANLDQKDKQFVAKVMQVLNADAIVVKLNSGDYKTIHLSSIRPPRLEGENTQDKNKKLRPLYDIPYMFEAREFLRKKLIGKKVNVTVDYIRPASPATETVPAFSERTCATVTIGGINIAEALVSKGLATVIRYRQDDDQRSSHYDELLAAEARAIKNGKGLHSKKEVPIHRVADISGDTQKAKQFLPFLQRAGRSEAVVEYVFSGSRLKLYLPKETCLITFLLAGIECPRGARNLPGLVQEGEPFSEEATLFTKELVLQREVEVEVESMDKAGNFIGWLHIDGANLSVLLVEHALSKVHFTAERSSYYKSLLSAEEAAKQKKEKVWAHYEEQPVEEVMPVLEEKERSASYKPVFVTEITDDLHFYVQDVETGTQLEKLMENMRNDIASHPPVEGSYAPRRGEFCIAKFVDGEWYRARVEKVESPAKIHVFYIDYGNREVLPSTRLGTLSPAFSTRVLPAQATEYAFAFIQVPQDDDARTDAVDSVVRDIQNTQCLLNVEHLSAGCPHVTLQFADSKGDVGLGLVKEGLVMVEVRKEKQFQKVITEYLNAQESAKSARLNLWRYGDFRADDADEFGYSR

B1: SAE1 (protein, UniProt Q9UBE0 1-346)
chain: MVEKEEAGGGISEEEAAQYDRQIRLWGLEAQKRLRASRVLLVGLKGLGAEIAKNLILAGVKGLTMLDHEQVTPEDPGAQFLIRTGSVGRNRAEASLERAQNLNPMVDVKVDTEDIEKKPESFFTQFDAVCLTCCSRDVIVKVDQICHKNSIKFFTGDVFGYHGYTFANLGEHEFVEEKTKVAKVSQGVEDGPDTKRAKLDSSETTMVKKKVVFCPVKEALEVDWSSEKAKAALKRTTSDYFLLQVLLKFRTDKGRDPSSDTYEEDSELLLQIRNDVLDSLGISPDLLPEDFVRYCFSEMAPVCAVVGGILAQEIVKALSQRDPPHNNFFFFDGMKGNGIVECLGPK

molecular target: KDM6A (bait of the co-IP with mass spectrometry and of the co-IP with Ku70; endogenous or tagged not told) (UniProt O15550); test: affinity purification with mass spectrometry; KDM6A co-IP on magnetic beads from sonicated cell lysate (20 mM HEPES pH 8.0, 150 mM NaCl, 1 mM EDTA, 1.5 mM MgCl2, 1% Triton X-100, 10% glycerol), 4 °C 2 h; SDS-PAGE, silver staining, mass spectrometry; cells not named

Molecule	binding
B1	binds

molecular target: KDM6A (bait of the co-IP with mass spectrometry and of the co-IP with Ku70; endogenous or tagged not told) (UniProt O15550); test: as above; remark: another data set of the same source

Molecule	binding
Ku70 (from UniProt P12956 1-609)	binds
Ku80 (from UniProt P13010 1-732)	binds
PCNA (from UniProt P12004 1-261)	binds
RPA1 (endogenous, hit of the KDM6A co-IP with mass spectrometry) (from UniProt P27694 1-616)	binds
RPA2 (from UniProt P15927 1-270)	binds
SMARCA5 (from UniProt O60264 1-1052)	binds
SSRP (from UniProt Q08945 1-709)	binds
SUMO1 (endogenous, hit of the KDM6A co-IP with mass spectrometry) (from UniProt P63165 1-97)	binds
staphylococcal nuclease domain-containing protein 1 (SND1), endogenous (from UniProt Q7KZF4 1-910)	binds

Results are given in words; binding and its absence hold for the method and conditions named. In cells and extracts the contact can be indirect. These calls come from enrichment with a bait or labelling near it, and not all partners need be listed.
